Test results reported in BigSolDB 2.1.

Nc1ccc(S(N)(=O)=O)cc1
solubility (mole fraction)
Details	278.15 K	283.15 K	288.15 K	293.15 K	298.15 K	303.15 K	308.15 K	313.15 K	318.15 K
in chloroform	9.2e-07	1.26e-06	1.71e-06	2.27e-06	2.92e-06	3.68e-06	4.52e-06	5.44e-06	6.43e-06
in ethanol	0.00609	0.00688	0.00814	0.0097	0.0116	0.0139	0.0165	0.0193	0.0224
in methanol	0.0107	0.0138	0.0174	0.0214	0.0258	0.0306	0.0358	0.0413	0.0471
in toluene	3.7e-06	5.6e-06	8.1e-06	1.19e-05	1.43e-05	1.88e-05	2.24e-05	2.64e-05	3.11e-05
